# Reference: PMC5996148
# Amino acid sequences for entries named in this document (tags omitted). A change or cut given only in a name is not applied to a line headed by its entry.
# UniProt Q06330: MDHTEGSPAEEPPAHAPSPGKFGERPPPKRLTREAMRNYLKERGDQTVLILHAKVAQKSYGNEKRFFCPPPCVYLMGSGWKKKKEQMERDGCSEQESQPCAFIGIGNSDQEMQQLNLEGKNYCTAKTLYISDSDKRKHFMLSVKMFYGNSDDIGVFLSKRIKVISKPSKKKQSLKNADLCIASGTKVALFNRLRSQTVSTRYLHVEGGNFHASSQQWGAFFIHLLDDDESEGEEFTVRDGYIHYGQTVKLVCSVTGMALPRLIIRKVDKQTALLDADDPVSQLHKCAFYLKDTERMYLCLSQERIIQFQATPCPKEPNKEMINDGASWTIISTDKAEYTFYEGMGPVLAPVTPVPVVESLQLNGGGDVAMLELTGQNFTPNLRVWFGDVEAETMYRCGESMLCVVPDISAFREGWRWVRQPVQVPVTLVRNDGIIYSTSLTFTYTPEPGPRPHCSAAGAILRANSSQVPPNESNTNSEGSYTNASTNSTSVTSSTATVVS
# The other results are listed elsewhere or left out. For some of these results: The exact form of the protein is not confirmed.
# Columns and labels:
# Assay in all cases: protein microarray (ProtoArray v5.0), streptavidin-Alexa Fluor 647
# Conditions in all cases: 3'-biotin; 20 mM Tris (pH 7.5), 5 mM MgCl2, 100 mM KCl, 0.1% Tween-20, A/T-rich and random oligonucleotide blockers; temperature not stated; high values mean tight binding
# RBPJ = RBPJ (UniProt Q06330)
# RCP9 (human) = test system: RCP9 (human)
# RCSD1 (human) = test system: RCSD1 (human)
# RDHE2 (human) = test system: RDHE2 (human)
# REEP2 = molecular target: T1, REEP2 (UniProt Q9BRK0)
# T1 sequence: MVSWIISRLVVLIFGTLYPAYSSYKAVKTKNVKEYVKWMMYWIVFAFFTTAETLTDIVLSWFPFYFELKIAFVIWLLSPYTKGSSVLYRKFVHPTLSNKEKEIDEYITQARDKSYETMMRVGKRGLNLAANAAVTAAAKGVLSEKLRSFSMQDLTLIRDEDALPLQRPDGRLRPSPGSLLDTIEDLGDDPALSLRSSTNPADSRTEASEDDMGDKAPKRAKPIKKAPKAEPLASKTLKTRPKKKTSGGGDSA
# RFC5 (human) = test system: RFC5 (human)
# RFPL3 (human) = test system: RFPL3 (human)
# RGS10 (human) = test system: RGS10 (human)
# RHCG (human) = test system: RHCG (human)
# [1] = test system: RING finger protein 122 (human)
sequence,measurement,setting,value
GGTGACAGGGGTATGGGGAGGGG [G4-2 biotinylated (Ct1)],binding signal,RBPJ,3.07 z-score
same,binding signal,RCP9 (human),-0.383 z-score
same,binding signal,RCSD1 (human),-0.391 z-score
same,binding signal,RDHE2 (human),-0.382 z-score
same,binding signal,REEP2,3.2 z-score
same,binding signal,RFC5 (human),-0.363 z-score
same,binding signal,RFPL3 (human),-0.37 z-score
same,binding signal,RGS10 (human),-0.392 z-score
same,binding signal,RHCG (human),-0.387 z-score
same,binding signal,[1],-0.388 z-score

# Quoted at random: 2 entries already listed.
sequence,measurement,setting,value
GGTGACAGGGGTATGGGGAGGGG [G4-2 biotinylated (Ct1)],binding signal,RGS10 (human),-0.392 z-score
same,binding signal,[1],-0.388 z-score
